Measurements reported in patent EP4847498A1, “PRODRUG COMPOUND ACTIVATED BY FIBROBLAST ACTIVATION PROTEIN” (dated 2026).
The structures given here were assigned with low confidence; some may be wrong.

Amino acid sequences for entries named in this document (tags omitted). Residues count along the entry.
UniProt Q12884, whole entry: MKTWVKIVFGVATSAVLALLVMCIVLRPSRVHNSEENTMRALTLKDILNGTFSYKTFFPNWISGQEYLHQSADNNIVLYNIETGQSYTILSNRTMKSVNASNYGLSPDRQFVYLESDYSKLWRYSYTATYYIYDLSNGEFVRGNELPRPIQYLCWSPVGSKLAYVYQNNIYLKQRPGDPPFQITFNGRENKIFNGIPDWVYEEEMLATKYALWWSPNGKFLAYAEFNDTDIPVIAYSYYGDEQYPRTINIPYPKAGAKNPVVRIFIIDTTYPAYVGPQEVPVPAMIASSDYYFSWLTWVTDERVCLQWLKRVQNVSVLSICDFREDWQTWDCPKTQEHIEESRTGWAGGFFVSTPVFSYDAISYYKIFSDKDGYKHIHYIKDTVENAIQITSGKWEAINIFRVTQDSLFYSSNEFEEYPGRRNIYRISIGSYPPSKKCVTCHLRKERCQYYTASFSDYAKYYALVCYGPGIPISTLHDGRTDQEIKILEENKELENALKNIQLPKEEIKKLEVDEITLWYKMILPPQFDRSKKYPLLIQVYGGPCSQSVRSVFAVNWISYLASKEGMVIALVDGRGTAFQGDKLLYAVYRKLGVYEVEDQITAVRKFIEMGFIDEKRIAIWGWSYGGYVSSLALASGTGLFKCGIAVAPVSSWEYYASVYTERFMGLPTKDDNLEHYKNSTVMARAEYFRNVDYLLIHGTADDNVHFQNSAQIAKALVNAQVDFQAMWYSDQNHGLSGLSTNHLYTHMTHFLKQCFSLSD
UniProt P16234, 24-1089 limits assumed: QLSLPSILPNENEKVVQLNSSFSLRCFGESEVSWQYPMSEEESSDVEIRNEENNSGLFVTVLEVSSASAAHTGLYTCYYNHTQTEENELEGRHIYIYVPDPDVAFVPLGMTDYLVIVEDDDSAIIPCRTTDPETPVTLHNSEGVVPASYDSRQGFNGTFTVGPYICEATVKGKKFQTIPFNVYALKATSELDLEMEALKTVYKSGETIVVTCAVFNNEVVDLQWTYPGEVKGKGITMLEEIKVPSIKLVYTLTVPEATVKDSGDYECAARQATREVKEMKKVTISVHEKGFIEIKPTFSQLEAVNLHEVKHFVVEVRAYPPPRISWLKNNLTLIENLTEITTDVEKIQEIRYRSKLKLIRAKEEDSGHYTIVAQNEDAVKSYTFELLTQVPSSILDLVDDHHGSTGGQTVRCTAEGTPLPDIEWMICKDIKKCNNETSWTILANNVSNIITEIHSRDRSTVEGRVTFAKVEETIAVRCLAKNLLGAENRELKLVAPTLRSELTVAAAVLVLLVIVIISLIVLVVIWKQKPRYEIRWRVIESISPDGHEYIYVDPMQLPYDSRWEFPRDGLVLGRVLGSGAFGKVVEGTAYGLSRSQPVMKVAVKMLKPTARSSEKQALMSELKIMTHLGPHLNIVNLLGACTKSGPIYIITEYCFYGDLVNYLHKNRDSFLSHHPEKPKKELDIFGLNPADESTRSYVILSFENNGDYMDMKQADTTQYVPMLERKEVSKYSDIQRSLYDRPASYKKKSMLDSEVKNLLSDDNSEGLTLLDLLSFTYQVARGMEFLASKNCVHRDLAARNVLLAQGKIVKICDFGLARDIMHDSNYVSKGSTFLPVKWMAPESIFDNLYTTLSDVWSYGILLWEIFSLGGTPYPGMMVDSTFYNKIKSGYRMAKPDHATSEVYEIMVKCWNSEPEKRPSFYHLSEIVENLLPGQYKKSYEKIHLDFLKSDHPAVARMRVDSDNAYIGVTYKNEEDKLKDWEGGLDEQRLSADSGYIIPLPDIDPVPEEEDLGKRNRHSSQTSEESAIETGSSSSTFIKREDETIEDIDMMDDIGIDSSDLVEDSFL
UniProt P17948, 27-1338 limits assumed: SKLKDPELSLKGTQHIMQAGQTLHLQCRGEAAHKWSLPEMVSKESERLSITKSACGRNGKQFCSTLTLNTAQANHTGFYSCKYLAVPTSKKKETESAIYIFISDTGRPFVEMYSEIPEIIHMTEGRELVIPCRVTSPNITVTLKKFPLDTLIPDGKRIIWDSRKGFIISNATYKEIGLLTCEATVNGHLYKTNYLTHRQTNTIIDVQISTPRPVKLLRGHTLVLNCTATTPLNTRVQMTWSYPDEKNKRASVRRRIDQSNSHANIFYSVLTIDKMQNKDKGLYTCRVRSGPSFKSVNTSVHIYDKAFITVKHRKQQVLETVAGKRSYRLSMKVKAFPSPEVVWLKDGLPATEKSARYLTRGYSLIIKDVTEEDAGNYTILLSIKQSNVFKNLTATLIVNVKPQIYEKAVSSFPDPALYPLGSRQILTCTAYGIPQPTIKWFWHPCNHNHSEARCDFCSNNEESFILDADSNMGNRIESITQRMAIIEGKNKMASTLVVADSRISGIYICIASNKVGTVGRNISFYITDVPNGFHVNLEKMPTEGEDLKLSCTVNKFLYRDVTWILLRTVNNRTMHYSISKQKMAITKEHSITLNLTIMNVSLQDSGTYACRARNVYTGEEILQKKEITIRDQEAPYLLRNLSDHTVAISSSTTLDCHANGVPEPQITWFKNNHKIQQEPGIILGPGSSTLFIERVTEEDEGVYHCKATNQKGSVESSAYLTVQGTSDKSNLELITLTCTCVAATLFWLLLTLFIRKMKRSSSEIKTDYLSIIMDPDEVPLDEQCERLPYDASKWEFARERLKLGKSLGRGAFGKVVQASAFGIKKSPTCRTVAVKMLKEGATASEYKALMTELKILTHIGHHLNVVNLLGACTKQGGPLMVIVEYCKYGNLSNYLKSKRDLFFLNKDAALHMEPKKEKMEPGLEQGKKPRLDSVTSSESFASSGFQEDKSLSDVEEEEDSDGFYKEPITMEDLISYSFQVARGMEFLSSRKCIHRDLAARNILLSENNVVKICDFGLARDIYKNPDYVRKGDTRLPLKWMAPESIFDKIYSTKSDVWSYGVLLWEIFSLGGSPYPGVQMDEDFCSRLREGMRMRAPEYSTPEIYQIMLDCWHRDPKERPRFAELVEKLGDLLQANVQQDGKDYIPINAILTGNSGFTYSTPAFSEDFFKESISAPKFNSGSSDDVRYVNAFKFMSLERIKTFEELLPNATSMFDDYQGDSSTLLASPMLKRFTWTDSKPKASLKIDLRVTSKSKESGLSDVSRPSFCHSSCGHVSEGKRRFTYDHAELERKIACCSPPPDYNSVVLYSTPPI
UniProt P11362, 22-822 limits assumed: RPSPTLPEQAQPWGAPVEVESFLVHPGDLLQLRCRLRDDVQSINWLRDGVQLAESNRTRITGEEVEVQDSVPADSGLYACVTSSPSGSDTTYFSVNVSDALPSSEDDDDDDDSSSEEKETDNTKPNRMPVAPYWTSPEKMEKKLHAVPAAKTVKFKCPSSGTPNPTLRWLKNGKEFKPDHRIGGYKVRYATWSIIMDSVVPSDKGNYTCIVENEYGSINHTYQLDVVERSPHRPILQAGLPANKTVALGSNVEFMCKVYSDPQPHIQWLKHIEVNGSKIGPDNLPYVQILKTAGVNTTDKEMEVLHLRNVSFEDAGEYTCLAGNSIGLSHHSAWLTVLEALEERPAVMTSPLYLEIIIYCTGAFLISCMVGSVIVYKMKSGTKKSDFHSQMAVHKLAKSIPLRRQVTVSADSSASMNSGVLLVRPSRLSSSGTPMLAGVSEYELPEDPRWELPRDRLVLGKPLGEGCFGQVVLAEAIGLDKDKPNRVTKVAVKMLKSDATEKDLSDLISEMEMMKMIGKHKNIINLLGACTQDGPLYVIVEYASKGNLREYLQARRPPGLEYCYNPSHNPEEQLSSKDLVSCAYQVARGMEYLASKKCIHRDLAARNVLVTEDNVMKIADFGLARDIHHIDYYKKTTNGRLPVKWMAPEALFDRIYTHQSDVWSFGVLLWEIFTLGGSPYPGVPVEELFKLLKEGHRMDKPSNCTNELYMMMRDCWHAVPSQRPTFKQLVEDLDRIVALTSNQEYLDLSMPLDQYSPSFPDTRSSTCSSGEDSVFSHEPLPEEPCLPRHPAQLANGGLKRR

What was measured:
[1] = system: U87MG cells; experiment: FAAP activation by intracellular FAP, confocal microscopy of intrinsic nintedanib fluorescence
Protocol: To evaluate whether FAAP is activated by FAP at the cellular level, a normal group with FAP and a group in which FAP was blocked using oncoFAP were treated with each of nintedanib and FAAP, and the uptake pattern was observed using a confocal microscope. Specifically, cells were seeded into confocal dishes at a density of 2 x 10^5 cells/mL per well, incubated for 24 hours, and then subjected to drug treatment. For drug treatment, the normal group with FAP was treated with 2 µL (10 µM) of each of FAAP and nintedanib. The group in which FAP was blocked was first treated with 10 µL (1 mM) of oncoFAP, shaken from side to side, incubated for 30 minutes, and then treated with 2 µL (10 µM) of FAAP. After drug treatment, shaking was performed using a shaker at 165 rpm for 5 minutes. After incubation in an incubator for 15 minutes, 2 hours, 6 hours, and 10 hours, the cells were washed twice with warm DPBS. The cells were incubated with 1 ml of warm 4% PFA for 15 minutes, washed twice, then fixed by filling with DPBS to keep them from drying out, and then confocal images were taken. Nintedanib drug images were obtained using a Hoechst 33258 filter.

[2] = biological target: FAP (Homo sapiens, UniProt Q12884); experiment: Degradation of FAAP by FAP and release of nintedanib, HPLC and LC/MS; conditions: 100 µM FAAP, 4.45 µg/mL FAP; for FAAP degraded: pH 7.4, 37°C
Protocol: (§1) To evaluate the degree to which FAAP synthesized in Example 1 above is activated by FAP, 100 µM of FAAP and 4.45 µg/mL of FAP were incubated in a buffer (0.01 M Tris-HCl, pH 7.4, 0.01 M MgCl2, 0.05% Tween-20, distilled water) and <2.5% (v/v) of DMSO at 37°C. Subsequently, samples were collected at different time points, and whether nintenanib would be released by degradation of FAAP was analyzed by HPLC and LC/MS using the instrument's mass detector and UV detector (390 nm). The results are shown in FIGS. 4a and 4b and FIGS. 5a to 5c. Here, the conditions for analysis using the HPLC and LC-MS systems (Agilent) are as follows: • Analysis column: X Terra MS C18 column, 25 Å, 3.5 µm, 2.1 mm x 100 mm; • HPLC and LC-MS conditions: 0-2 min, 20% A/B; 2-15 min, 20-90% A/B; 15-20 min, 90% A/B; 0.25 ml/min flow rate; • As elution buffer, acetonitrile (solvent A) and water (solvent B) are mixed with 0.1% formic acid (v/v).

[3] = Stability of FAAP in buffer in the absence of FAP, HPLC and LC/MS; conditions: buffer pH 7.4, 37°C, without FAP
Protocol: as §1

[4] = biological target: PDGFRα (Homo sapiens, UniProt P16234); experiment: Competitive binding assay with DNA-tagged kinase and immobilized ligand, qPCR readout, PDGFRα
Protocol: (§2) This experiment was conducted based on a competitive binding assay for quantitatively measuring the ability of the compound to compete with an immobilized, active site-directed ligand. This assay was performed by combining three components: a DNA-tagged kinase, a ligand immobilized on a bead, and the test compound. If the test compound binds to the kinase and directly or indirectly blocks the ATP site, the number of protein molecules (kinase) that bind to the ligand immobilized on the bead is reduced. […] Therefore, the degree of binding is evaluated based on the amount of fusion protein, bound to the bead, through quantitative PCR (qPCR). Kinase, liganded beads, and test compounds (nintedanib and FAAP were each diluted three-fold to the highest concentration of 10 mM and tested at a total of 11 points) were placed in a test plate and incubated with stirring at room temperature for 1 hour. Thereafter, the beads were resuspended in elution buffer (1x PBS, 0.05% Tween 20, 0.5 µM non-biotinylated affinity ligand) and then incubated with stirring at room temperature for 30 minutes, and the kinase concentration in the eluate was measured by qPCR.

[5] = biological target: FLT1 (Homo sapiens, UniProt P17948); experiment: Competitive binding assay with DNA-tagged kinase and immobilized ligand, qPCR readout, FLT1
Protocol: as §2

[6] = biological target: FGFR1 (Homo sapiens, UniProt P11362); experiment: Competitive binding assay with DNA-tagged kinase and immobilized ligand, qPCR readout, FGFR1
Protocol: as §2

## COC(=O)c1ccc2c(c1)N(Cc1ccc(NC(=O)[C@@H]3CCCN3C(=O)[C@@H](C)NC(=O)c3ccncc3)cc1)C(=O)/C2=C(\Nc1ccc(N(C)C(=O)CN2CCN(C)CC2)cc1)c1ccccc1
[1]; normal group with FAP, 10 µM
  time after treatment until which no fluorescence was shown, then fluorescence intensity increased: 10 h
[1]; pretreated with OncoFAP (1 mM) for 30 minutes, then 10 µM FAAP, after 10 hours
  fluorescence after blocking FAP with the FAP inhibitor OncoFAP: no fluorescence appeared
[2]; at a subsequent time point (after 5 hours), 37°C
  FAAP degradation into nintedanib: completely degraded into nintedanib
[2]; within 1.5 hours
  FAAP degraded: 40%
[2]; within 5 hours
  FAAP degraded: 80%
[3]
  stability in the absence of FAP: remained very stable for a long period
[4]
  Binding affinity of FAAP compared to nintedanib: 0.47-fold
[5]
  Binding affinity of FAAP compared to nintedanib: 0.2-fold
[6]
  Binding affinity of FAAP compared to nintedanib: 0.8-fold
